Reference: PubChem BioAssay AID651640 (Broad Institute, 2012)
Hit rate of the full screen: of about 350,000 compounds, about 6,000 (1.7%) were called active. Inconclusive means that the source gave no clear call. Such entries were picked first, then a sample of the others. Cut-off read from the data, not from the text of the source: active = CPE inhibition above about 20% (passing the limit was not always enough); inconclusive = no clear call, values can overlap the other calls; tested in BHK-21 cells.

Assay: protection of cells from dengue 2 killing – plate reader, single concentration, primary screen (AID 651640);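 note: 0% = median of neutral control wells and 100% = median of positive control wells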
Conditions: DENV2-infected cells, cytopathic effect rescue, at 9.99 µM, active compounds read high
With `CCNC(=O)COc1ccc(F)cc1C(=O)c1cnn(-c2ccccc2)c1` the CPE inhibition was inconclusive: 24.2%.
With `COc1ccc(-c2cccc(-c3nc4ccc(Cl)cn4c3NC3CCCCC3)c2)cc1` the CPE inhibition was inconclusive: 76%.
In the case of `Cc1noc(C)c1S(=O)(=O)Nc1ccc2c(c1)C(=O)N([C@H](C)CO)C[C@H](C)[C@H](CN(C)S(=O)(=O)c1cccs1)OCCCC[C@@H](C)O2`, the CPE inhibition is reported as inactive: -6.42%.
With `C[C@@H]1CN([C@H](C)CO)C(=O)Cc2cc(NC(=O)Nc3ccc4c(c3)OCO4)ccc2O[C@@H]1CN(C)C(=O)Nc1cccc2ccccc12` the CPE inhibition was inconclusive: 26.6%.
With `Cn1cnc(S(=O)(=O)N[C@@H]2C=C[C@H](CC(=O)N3CCN(c4ccccc4)CC3)O[C@@H]2CO)c1` the CPE inhibition was active: 93.9%.
With `C[C@@H]1CN([C@H](C)CO)C(=O)Cc2cc(NC(=O)CCN3CCOCC3)ccc2O[C@H]1CN(C)S(C)(=O)=O` the CPE inhibition was inactive: 14.6%.
For `Nc1nc(F)nc2c1ncn2[C@@H]1O[C@H](CO)[C@@H](O)[C@@H]1O`, the CPE inhibition was inactive: -0.103%.
With `CS(=O)(=O)Nc1ccc2c(c1)[C@@H]1C[C@@H](CC(=O)NCc3ccncc3)O[C@H](CO)[C@@H]1O2` the CPE inhibition was inconclusive: 37.4%.
With `CCc1nc2c(OCc3cccc(Cl)c3)cccn2c1N(C)C(=O)c1ccco1` the CPE inhibition was active: 22.7%.
For `COc1ccccc1-c1sc2ccccc2c1C#Cc1ccc(N(C)C)cc1`, the CPE inhibition was inconclusive: 45.3%.
With `Cc1cn(CC(=O)N[C@H](CO)Cc2c[nH]c3ccccc23)c(=O)[nH]c1=O` the CPE inhibition was inconclusive: 69.1%.
For `C[C@@H]1CN([C@@H](C)CO)C(=O)c2cc(NC(=O)CCC(F)(F)F)ccc2O[C@@H](C)CCCCO[C@@H]1CN(C)Cc1ccc(C(=O)O)cc1`, the CPE inhibition was inactive: 3.75%.
With `CC(=Nc1ccccc1)C1=C(O)C(Cc2cccc(F)c2)NC1=O` (configuration not stated) the CPE inhibition was inactive: 19.7%.
For `CC(C)NC(=O)N[C@@H]1C=C[C@H](CC(=O)O)O[C@H]1CO`, the CPE inhibition was inconclusive: 28.1%.
With `COCCNC(=S)Nc1cc(OC)c(OC)cc1C#N` the CPE inhibition was inactive: 1.37%.
With `CCNC(=O)C1(C)CCN(C(=O)c2ccc(OC)cc2OC)C1` (configuration not stated) the CPE inhibition was inconclusive: 20%.
In the case of `Cc1cc(-c2ccc(N3CCOCC3)cc2)nc2ccccc12`, the CPE inhibition is reported as inactive: -1.52%.
With `CCOc1ccc(-c2nnc(SCC(=O)N3CCN(c4ccccc4)CC3)o2)cc1` the CPE inhibition was inactive: 2.43%.
In the case of `O=C1c2ccccc2NC(c2ccc(-c3ccccc3F)o2)N1O` (configuration not stated), the CPE inhibition is reported as active: 25%.
For `CC(C)NC(=O)Nc1cccc2c1O[C@@H](CN(C)C(=O)Nc1ccc(F)cc1)[C@@H](C)CN([C@H](C)CO)C2=O`, the CPE inhibition was active: 21.9%.
For `CC1(C(=O)NCc2cccc3ccccc23)CCN1CCc1ccccc1` (configuration not stated), the CPE inhibition was inconclusive: 29.6%.
With `CC(C)c1cn(CC[C@H]2CC[C@@H](NC(=O)Nc3cc(Cl)cc(Cl)c3)[C@@H](CO)O2)nn1` the CPE inhibition was inactive: -2.54%.
With `Cc1ccc(S(=O)(=O)Nc2c(C)nn(C)c2C)cc1C` the CPE inhibition was inactive: 1.6%.
In the case of `CCC(=O)N1CC2(C1)[C@H](c1ccccc1)[C@@H](CO)N2C(=O)c1ccncc1`, the CPE inhibition is reported as active: 23%.
For `O=C(O)CNC(=O)c1ccc(NS(=O)(=O)c2ccc3ccccc3c2)cc1`, the CPE inhibition was active: 31.1%.
In the case of `COc1ccc(C(C)(C)C)cc1N1C(=O)[C@@H]2CSCCS(=O)(=O)N2C1=O`, the CPE inhibition is reported as inconclusive: 29.6%.
For `O=S1(=O)N[C@@H](Cc2ccccc2)COc2cccc(NCCCN3CCOCC3)c21`, the CPE inhibition was inconclusive: 32.2%.
In the case of `CS(=O)(=O)N1[C@H](C#N)[C@H](c2ccc(-c3ccccc3F)cc2)[C@H]1CO`, the CPE inhibition is reported as inconclusive: 23.2%.
In the case of `COc1ccccc1C(c1c(O)nc(SC)[nH]c1=O)c1c(O)nc(SC)[nH]c1=O`, the CPE inhibition is reported as inconclusive: 26.2%.
With `O=C(NCCC(=O)N(CCc1ccccc1)Cc1ccccc1)c1ccc([N+](=O)[O-])cc1` the CPE inhibition was inconclusive: 41.9%.
In the case of `COc1ccccc1C(C)NC(=O)C1CCN(S(=O)(=O)c2cccs2)CC1` (configuration not stated), the CPE inhibition is reported as inconclusive: 29.7%.
In the case of `O=C(NCc1cccnc1)c1cc(C2CCCCN2C(=O)CCCc2ccccc2)on1` (configuration not stated), the CPE inhibition is reported as inactive: 3.01%.
In the case of `CC(=O)c1ccc(OC(=O)COc2ccccc2)cc1`, the CPE inhibition is reported as inconclusive: 25.6%.
With `CC1(C)CC(NC(=O)C2CCN(S(=O)(=O)c3ccc(Cl)c(C(F)(F)F)c3)CC2)CC(C)(C)N1` the CPE inhibition was inactive: -14.9%.
For `NC(c1csc(Nc2cnccn2)n1)C1CCCCC1` (configuration not stated), the CPE inhibition was inconclusive: 87.1%.
In the case of `Cc1ccc(S(=O)(=O)N(C)C[C@@H]2Oc3ccc(NC(=O)CCCN(C)C)cc3CC(=O)N([C@@H](C)CO)C[C@H]2C)cc1`, the CPE inhibition is reported as inactive: -1.81%.
For `CC(C)NC(=O)N(C)C[C@@H]1Oc2cc(C3=CCCC3)ccc2S(=O)(=O)N([C@H](C)CO)C[C@@H]1C`, the CPE inhibition was active: 46.7%.
In the case of `O=C(Cc1ccc(NC(=O)C2CCCN(C(=O)CCc3ccccc3)C2)cc1)Nc1cccc(C(=O)N2CCCC2)c1` (configuration not stated), the CPE inhibition is reported as inconclusive: 21.1%.
In the case of `CCC(=O)N1CC2(CCN(Cc3ccc(Cl)cc3)CC2)c2c(n(C)c3cc(OC)ccc23)[C@H]1CO`, the CPE inhibition is reported as inactive: -1.47%.
In the case of `O=C(O)[C@@H]1[C@@H](CO)[C@@H]2Cn3c(ccc(-c4ccccc4F)c3=O)[C@@H]2N1Cc1ccccc1`, the CPE inhibition is reported as inactive: 0.119%.
With `COCC(=O)Nc1ccc2c(c1)[C@H]1C[C@@H](CC(=O)NC3CCCCC3)O[C@H](CO)[C@H]1O2` the CPE inhibition was active: 32.5%.
In the case of `C[C@@H]1CN([C@@H](C)CO)C(=O)Cc2cc(NC(=O)c3ccncc3)ccc2O[C@@H]1CN(C)C(=O)NC1CCCCC1`, the CPE inhibition is reported as inactive: -4.05%.
In the case of `C[C@H](CO)N1C[C@H](C)[C@H](CN(C)Cc2ccc3c(c2)OCO3)Oc2ccc(N(C)C)cc2C1=O`, the CPE inhibition is reported as inactive: 5.04%.
With `Cc1ccc2nc(SC(C)C(=O)N3CC(C)OC(C)C3)[nH]c2c1` (configuration not stated) the CPE inhibition was inactive: 3.8%.
With `C[C@@H]1CN([C@H](C)CO)C(=O)c2cc(NC(=O)Cc3ccccc3)ccc2O[C@@H](C)CCCCO[C@@H]1CN(C)S(=O)(=O)c1ccc(Cl)cc1` the CPE inhibition was inactive: -6.45%.
For `O=C(CSc1nc2[nH]ncc2c(=O)[nH]1)NCc1ccccc1`, the CPE inhibition was inconclusive: 26.9%.
In the case of `COCCOC(=O)c1c(C)oc2ccc(OCc3ccccc3)cc12`, the CPE inhibition is reported as inactive: -1.45%.
